Measured values reported in publication doi:10.1101/2020.05.13.094185.
Results are given in words; binding and its absence hold for the method and conditions named. For some of these results: Binding seen in cells or lysates may run through a third protein. Some entries that bind do so weakly or less than the wild type.

Chains of the proteins cited; added tags and fusions are not shown.
UniProt P33674: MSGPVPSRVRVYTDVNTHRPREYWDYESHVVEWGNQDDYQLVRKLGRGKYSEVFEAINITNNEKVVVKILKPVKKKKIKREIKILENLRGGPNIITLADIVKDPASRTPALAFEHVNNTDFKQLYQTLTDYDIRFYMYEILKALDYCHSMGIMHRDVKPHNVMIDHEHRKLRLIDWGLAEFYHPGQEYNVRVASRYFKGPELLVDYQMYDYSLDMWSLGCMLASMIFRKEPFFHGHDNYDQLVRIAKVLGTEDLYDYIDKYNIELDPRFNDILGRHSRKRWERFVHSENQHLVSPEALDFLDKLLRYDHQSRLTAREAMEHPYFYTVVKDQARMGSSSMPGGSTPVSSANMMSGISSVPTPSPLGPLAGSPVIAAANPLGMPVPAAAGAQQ
UniProt G1TVT0: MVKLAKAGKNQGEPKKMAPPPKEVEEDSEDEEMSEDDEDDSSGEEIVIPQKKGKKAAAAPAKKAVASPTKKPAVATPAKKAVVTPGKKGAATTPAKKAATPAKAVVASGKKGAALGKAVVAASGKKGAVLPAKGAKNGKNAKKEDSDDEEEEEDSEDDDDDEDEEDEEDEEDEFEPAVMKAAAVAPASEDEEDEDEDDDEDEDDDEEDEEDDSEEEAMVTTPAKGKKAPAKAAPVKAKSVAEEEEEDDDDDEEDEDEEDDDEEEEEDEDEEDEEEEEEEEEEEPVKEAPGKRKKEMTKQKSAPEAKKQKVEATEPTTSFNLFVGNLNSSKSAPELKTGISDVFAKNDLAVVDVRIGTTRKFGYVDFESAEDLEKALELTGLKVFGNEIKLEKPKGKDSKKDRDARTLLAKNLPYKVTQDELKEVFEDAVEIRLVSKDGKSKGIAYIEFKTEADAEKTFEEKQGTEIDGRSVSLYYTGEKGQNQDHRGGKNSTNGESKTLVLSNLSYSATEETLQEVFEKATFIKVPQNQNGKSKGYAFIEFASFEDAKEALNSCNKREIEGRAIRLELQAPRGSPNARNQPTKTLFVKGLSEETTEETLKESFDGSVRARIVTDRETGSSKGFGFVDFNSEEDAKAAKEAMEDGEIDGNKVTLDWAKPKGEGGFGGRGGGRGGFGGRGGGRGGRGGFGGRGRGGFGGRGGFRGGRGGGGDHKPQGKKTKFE

What was measured:
[1] = target: HnRNPK, myc or Flag fusion (rabbit) (UniProt O19049); assay: co-IP
[2] = target: CSNK2A1, myc or Flag fusion (rabbit) (UniProt P33674); assay: co-IP
[3] = target: HnRNPK, mammalian two-hybrid fusion (rabbit) (UniProt O19049); assay: two-hybrid
[4] = target: CSNK2A1, mammalian two-hybrid fusion (rabbit) (UniProt P33674); assay: two-hybrid

Substance | binding [1] | binding [2] | binding [3] | binding [4]
NCL-Flag (from UniProt G1TVT0 1-721) | binds | binds | – | –
NCL, mammalian two-hybrid fusion (from UniProt G1TVT0 1-721) | – | – | binds | binds
